{"sequences": {"note": "Protein sequences, listed by entry. Tags and fused reporters are not part of them.", "UniProt P60879": "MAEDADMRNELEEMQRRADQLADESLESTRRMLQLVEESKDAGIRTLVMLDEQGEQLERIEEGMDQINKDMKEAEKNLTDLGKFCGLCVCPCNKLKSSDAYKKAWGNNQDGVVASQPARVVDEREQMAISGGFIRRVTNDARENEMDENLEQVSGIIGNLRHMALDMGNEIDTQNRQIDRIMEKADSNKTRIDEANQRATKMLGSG", "UniProt P34152": "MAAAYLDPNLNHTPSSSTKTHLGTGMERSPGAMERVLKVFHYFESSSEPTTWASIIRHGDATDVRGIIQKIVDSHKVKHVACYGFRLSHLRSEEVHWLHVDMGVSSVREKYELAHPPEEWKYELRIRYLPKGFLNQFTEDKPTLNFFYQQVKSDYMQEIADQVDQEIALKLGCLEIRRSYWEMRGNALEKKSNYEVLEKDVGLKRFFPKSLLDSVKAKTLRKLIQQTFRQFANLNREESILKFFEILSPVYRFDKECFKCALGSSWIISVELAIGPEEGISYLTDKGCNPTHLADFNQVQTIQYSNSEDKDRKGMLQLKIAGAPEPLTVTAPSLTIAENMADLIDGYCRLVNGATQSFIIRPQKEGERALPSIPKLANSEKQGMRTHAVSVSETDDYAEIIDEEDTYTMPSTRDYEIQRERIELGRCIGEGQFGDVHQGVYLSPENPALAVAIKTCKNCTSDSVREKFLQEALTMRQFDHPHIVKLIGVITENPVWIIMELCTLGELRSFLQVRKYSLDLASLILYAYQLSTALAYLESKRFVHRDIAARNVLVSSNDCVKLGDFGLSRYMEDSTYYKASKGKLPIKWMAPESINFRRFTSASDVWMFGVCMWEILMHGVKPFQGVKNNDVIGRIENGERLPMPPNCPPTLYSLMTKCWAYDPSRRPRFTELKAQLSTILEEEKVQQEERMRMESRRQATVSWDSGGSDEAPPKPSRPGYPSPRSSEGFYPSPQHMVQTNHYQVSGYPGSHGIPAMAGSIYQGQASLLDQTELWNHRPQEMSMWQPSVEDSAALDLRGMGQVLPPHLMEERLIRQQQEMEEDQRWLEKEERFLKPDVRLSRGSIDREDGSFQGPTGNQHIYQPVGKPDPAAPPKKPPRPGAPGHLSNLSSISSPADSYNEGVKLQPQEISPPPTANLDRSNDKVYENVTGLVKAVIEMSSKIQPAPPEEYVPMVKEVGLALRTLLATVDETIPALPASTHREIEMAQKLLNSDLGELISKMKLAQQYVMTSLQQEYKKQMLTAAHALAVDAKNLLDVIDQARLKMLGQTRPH", "UniProt Q9JLV1": "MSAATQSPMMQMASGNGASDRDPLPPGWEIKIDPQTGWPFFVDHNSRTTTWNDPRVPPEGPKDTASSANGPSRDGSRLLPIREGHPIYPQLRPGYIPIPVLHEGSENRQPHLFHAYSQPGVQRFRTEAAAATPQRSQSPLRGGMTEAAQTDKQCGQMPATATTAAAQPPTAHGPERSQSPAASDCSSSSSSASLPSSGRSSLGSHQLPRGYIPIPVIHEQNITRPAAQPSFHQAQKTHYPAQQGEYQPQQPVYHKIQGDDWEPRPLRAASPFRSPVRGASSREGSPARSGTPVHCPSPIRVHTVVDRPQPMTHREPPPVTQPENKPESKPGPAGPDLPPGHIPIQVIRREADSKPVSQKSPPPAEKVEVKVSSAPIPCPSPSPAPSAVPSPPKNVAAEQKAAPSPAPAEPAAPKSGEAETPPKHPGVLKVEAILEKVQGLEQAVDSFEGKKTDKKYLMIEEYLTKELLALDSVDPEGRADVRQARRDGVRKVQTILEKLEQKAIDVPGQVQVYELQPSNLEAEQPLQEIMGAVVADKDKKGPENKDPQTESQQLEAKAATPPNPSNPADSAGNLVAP"}, "source": "paper PMC4385931", "key": {"[1]": {"target": "synaptosome-associated protein of 25 kDa (SNAP-25) (mouse (endogenous in β-TC-6)) (UniProt P60879)", "assay": "co-IP; anti-SNAP-25 antibody on IP matrix, 300 μg β-TC-6 lysate, 2 h at 4°C, washed with RIPA buffer, western blot; cells in basal conditions or 5 min of 25-mM glucose; also 5-30 min of 25-mM glucose with the FAK inhibitor Y15"}, "[2]": {"target": "focal adhesion kinase (FAK) (mouse (endogenous in β-TC-6)) (UniProt P34152)", "assay": "co-IP; anti-FAK antibody on IP matrix, 300 μg β-TC-6 lysate, 2 h at 4°C, washed with RIPA buffer, western blot; cells in basal conditions or 5-30 min of 25-mM glucose"}, "[3]": {"target": "synaptosome-associated protein of 25 kDa (SNAP-25) (mouse (endogenous in β-TC-6)) (UniProt P60879)", "assay": "condition: only cells stimulated with 25-mM glucose for 15 or 30 min; co-IP; anti-SNAP-25 antibody on IP matrix, 300 μg β-TC-6 lysate, 2 h at 4°C, washed with RIPA buffer, western blot; cells stimulated with 25-mM glucose for 15 or 30 min (no Y15)"}}, "note": "No constants are given. Whether binding was seen depends on the method and setting. Binding seen in cells or lysates may run through a third protein. Some binding calls cover weakened binding; strength is not graded here.", "data": [{"substance": "Bcl2-associated athanogene 3 (BAG3) (from UniProt Q9JLV1 1-577)", "values": [{"measurement": "binding", "setting": "[1]", "value": "binds"}, {"measurement": "binding", "setting": "[2]", "value": "binds"}, {"measurement": "binding", "setting": "[3]", "value": "no binding"}]}]}
